Some of these results come from one statement about several compounds together.
Tested on: Hela cells
Assay: Two-colour orthogonal labeling of CLIP-histone and mito-SNAP in the same Hela cell
Format: cell-based
Conditions: 0.2 μM, 2 h
Method: Plant Hela cells (5000 cells/well) in a glass bottom plate of 96-well for 14 h; transfect pcdna3.1-CLIP-histone (CLIP protein labeled chromosome localization plasmid) and pcdna3.1-mito-SNAP (SNAP protein labeled […] localization plasmid) by using Lipo2000 kit (0.1 μg/well). After 24 h of transfection, remove the original culture medium, and wash the culture medium twice with phenol free red DMEM culture medium, and hatch the cells respectively with phenol free red medium containing Probe 16 and Probe 9 (0.2 μM) for 2 h, and detect the effect of cell labeling by using Leica TCS-8 confocal microscopy imaging.

SMILES: CN(CCOC(=O)NCc1ccc(COc2nc(N)nc3[nH]cnc23)cc1)c1ccc2c(c1)C(C)(C)c1cc(/C=C(\C#N)C(=O)OC(C)(C)C)sc1-2 [Probe 16]
- Co localization coefficient of the Probe 9 chromosome channel and the Probe 16 mitochondrial channel: less than 0.1

— patent publication US12613246B2, “Fluorescent probe and protein labeling method” (SHANGHAI GLORY CAPITAL MANAGEMENT LTD., priority 2018, dated 2026)
